PubChem BioAssay AID493246 – Drosophila RNAi Screening Center – 2011
The screen tested about 21,000 reagents; shown is a random part of those that have a named target and a result. Over the whole deposit, 429 (2%) got an active call. 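Values are raw and not normalised between plates; calls rest on per-plate z-scores that were not deposited.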 A number with no mark means an inactive call. Reagents against one gene are numbered here. Names joined by + are all predicted targets of the reagent. Not given: the amount of reagent, the time to read-out.

Screen: 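Genome-wide search for dsRNAs that reduce cell number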 (primary screen)
Cell system: Drosophila Kc and S2R+ cells
Reagent: long dsRNA against Drosophila genes
Detection: 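Cell number per well after knock-down, printed as raw plate values; calls were based on per-plate z-scores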
Reading the numbers: Kc cell number and S2R+ cell number: higher = more cells remaining
Active means: 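Active when the per-plate z-score of cell number is 3 or more in the direction of fewer cells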

Target gene | reagent | Kc cell number, rep 1 | Kc cell number, rep 2 | S2R+ cell number, rep 1 | S2R+ cell number, rep 2
reb | 1 | 1.67e6 | 1.64e6 | 1.20e6 | 1.39e6
GluRS-m | 1 | 1.37e6 | 1.39e6 | 1.23e6 | 1.34e6
CG14958 | 1 | 1.37e6 | 1.44e6 | 8.92e5 | 1.00e6
CG31683 + CG18858 | 1 | 1.50e6 | 1.59e6 | 1.25e6 | 3.13e5
Tes | 1 | 1.50e6 | 1.58e6 | 1.15e6 | 1.25e6
CG31751 | 1 | 1.59e6 | 1.61e6 | 1.20e6 | 3.03e5
CG31751 | 2 | 1.56e6 | 1.59e6 | 1.32e6 | 2.80e5
CG30339 | 1 | 1.45e6 | 1.48e6 | 9.26e5 | 1.07e6
CG5376 | 1 | 1.30e6 | 1.51e6 | 8.89e5 | 1.06e6
CG3841 | 1 | 1.56e6 | 1.60e6 | 1.18e6 | 1.32e6
Alg1 | 1 | 1.51e6 | 1.59e6 | 1.22e6 | 1.26e6
grnd | 1 | 1.64e6 | 1.67e6 | 1.40e6 | 1.55e6
alpha-Man-IIb | 1 | 1.59e6 | 1.65e6 | 1.17e6 | 1.26e6
CG4324 | 1 | 1.44e6 | 1.50e6 | 1.20e6 | 1.34e6
CG11381 | 1 | 1.40e6 | 1.41e6 | 8.93e5 | 9.92e5
Tpl94D | 1 | 1.69e6 | 1.62e6 | 1.11e6 | 1.26e6
CG15109 | 1 | 1.52e6 | 1.55e6 | 1.17e6 | 1.25e6
CG15130 | 1 | 1.54e6 | 1.62e6 | 1.23e6 | 2.95e5
Hey | 1 | 1.12e6 (active) | 9.97e5 | 5.30e5 | 6.29e5
CG15375 | 1 | 1.68e6 | 1.67e6 | 1.00e6 | 1.18e6
CG1698 | 1 | 1.33e6 | 1.35e6 | 1.16e6 | 1.16e6
sdk | 1 | 5.15e5 | – | 8.24e5 | –
Muc68E | 1 | 1.39e6 | 1.43e6 | 1.09e6 | 1.19e6
mip40 | 1 | 1.45e6 | 1.50e6 | 1.12e6 | 1.13e6
sd | 1 | 1.57e6 | 1.58e6 | 1.13e6 | 1.23e6
CG8036 | 1 | 1.29e6 | 1.38e6 | 1.19e6 | 1.32e6
PIG-S | 1 | 1.54e6 | 1.64e6 | 1.19e6 | 1.37e6
PIG-S | 2 | 1.46e6 | 1.53e6 | 9.48e5 | 1.03e6
PIG-S | 3 | 1.64e6 | 1.71e6 | 1.19e6 | 1.26e6
Treh | 1 | 1.33e6 | 1.45e6 | 1.10e6 | 1.16e6
CG12115 | 1 | 1.71e6 | 1.70e6 | 1.09e6 | 1.25e6
Prp18 | 1 | 1.54e6 | 1.65e6 | 1.05e6 | 1.12e6
jub | 1 | 4.28e5 | – | 6.31e5 | –
Rho1 | 1 | 1.19e6 | 1.23e6 | 1.16e6 | 1.25e6
CG10738 | 1 | 1.45e6 | 1.33e6 | 1.42e6 | 1.52e6
CG17752 | 1 | 1.31e6 | 1.31e6 | 1.06e6 | 1.14e6
lncRNA:CR32553 | 1 | 1.13e6 | 1.46e6 | 1.08e6 | 1.11e6
Or63a | 1 | 1.24e6 | 1.42e6 | 1.11e6 | 1.28e6
Sil1 | 1 | 1.48e6 | 1.58e6 | 1.29e6 | 1.34e6
CG7564 | 1 | 1.44e6 | 1.50e6 | 1.28e6 | 1.48e6
Sec24AB | 1 | 1.61e6 | 1.64e6 | 1.09e6 | 1.18e6
CG15097 | 1 | 1.24e6 | 1.35e6 | 1.01e6 | 8.89e5
CG9673 | 1 | 1.69e6 | 1.73e6 | 1.11e6 | 1.22e6
PAN3 | 1 | 1.22e6 | 1.40e6 | 1.14e6 | 1.05e6
MICAL-like | 1 | 1.32e6 | 1.29e6 | 1.30e6 | 1.05e6
CG12784 | 1 | 1.46e6 | 1.52e6 | 1.21e6 | 1.35e6
CG8925 | 1 | 1.36e6 | 1.59e6 | 1.06e6 | 1.16e6
CG8925 | 2 | 1.28e6 | 1.42e6 | 1.09e6 | 1.21e6
CG8925 | 3 | 1.20e6 | 1.32e6 | 1.10e6 | 1.24e6
mRpS23 | 1 | 1.50e6 | 1.60e6 | 1.03e6 | 1.22e6
CG31313 | 1 | 1.35e6 | 1.57e6 | 8.63e5 | 1.05e6
CG3062 | 1 | 1.66e6 | 1.62e6 | 1.09e6 | 1.22e6
CG34323 | 1 | 1.21e6 | 1.40e6 | 1.08e6 | 1.10e6
Twdlbeta | 1 | 1.67e6 | 1.76e6 | 1.41e6 | 1.58e6
eIF2Balpha | 1 | 5.11e5 | – | 8.51e5 | –
CG8135 + BBIP1 | 1 | 1.25e6 | 1.37e6 | 9.43e5 | 1.11e6
CG8135 + BBIP1 | 2 | 1.64e6 | 1.57e6 | 1.25e6 | 1.33e6
CG43333 | 1 | 1.65e6 | 1.72e6 | 1.20e6 | 1.40e6
FRG1 | 1 | 1.56e6 | 1.75e6 | 1.21e6 | 1.32e6

Laid out differently: entries from further up
CG15097 — Kc cell number, rep 1: 1.24e6; Kc cell number, rep 2: 1.35e6; S2R+ cell number, rep 1: 1.01e6; S2R+ cell number, rep 2: 8.89e5
CG9673 — Kc cell number, rep 1: 1.69e6; Kc cell number, rep 2: 1.73e6; S2R+ cell number, rep 1: 1.11e6; S2R+ cell number, rep 2: 1.22e6
PAN3 — Kc cell number, rep 1: 1.22e6; Kc cell number, rep 2: 1.40e6; S2R+ cell number, rep 1: 1.14e6; S2R+ cell number, rep 2: 1.05e6
MICAL-like — Kc cell number, rep 1: 1.32e6; Kc cell number, rep 2: 1.29e6; S2R+ cell number, rep 1: 1.30e6; S2R+ cell number, rep 2: 1.05e6
CG12784 — Kc cell number, rep 1: 1.46e6; Kc cell number, rep 2: 1.52e6; S2R+ cell number, rep 1: 1.21e6; S2R+ cell number, rep 2: 1.35e6
CG8925 #1 — Kc cell number, rep 1: 1.36e6; Kc cell number, rep 2: 1.59e6; S2R+ cell number, rep 1: 1.06e6; S2R+ cell number, rep 2: 1.16e6
CG8925 #2 — Kc cell number, rep 1: 1.28e6; Kc cell number, rep 2: 1.42e6; S2R+ cell number, rep 1: 1.09e6; S2R+ cell number, rep 2: 1.21e6
CG8925 #3 — Kc cell number, rep 1: 1.20e6; Kc cell number, rep 2: 1.32e6; S2R+ cell number, rep 1: 1.10e6; S2R+ cell number, rep 2: 1.24e6
